Assay results as given in publication PMC11067302.
No constants are given. Whether binding was seen depends on the method and setting. In cells and extracts the contact can be indirect. Some binding calls cover weakened binding; strength is not graded here. Tags and fused reporters may be left off the sequences shown.

By UniProt entry, the sequences of proteins in these tests, tags left out. Residues count along the entry.
UniProt P26951, residues 19-378: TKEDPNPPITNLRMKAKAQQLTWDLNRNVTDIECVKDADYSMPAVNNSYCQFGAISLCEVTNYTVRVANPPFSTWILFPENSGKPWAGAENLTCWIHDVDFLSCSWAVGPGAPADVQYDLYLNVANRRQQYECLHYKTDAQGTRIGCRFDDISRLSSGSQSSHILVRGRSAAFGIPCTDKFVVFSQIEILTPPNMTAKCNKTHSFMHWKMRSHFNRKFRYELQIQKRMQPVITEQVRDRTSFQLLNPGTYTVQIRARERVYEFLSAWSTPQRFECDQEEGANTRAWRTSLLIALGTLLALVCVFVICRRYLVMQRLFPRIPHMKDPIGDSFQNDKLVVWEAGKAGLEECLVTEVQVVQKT

Experiments:
Myc-RNF128 = target: T1, Myc-RNF128 (UniProt Q8TEB7); assay: co-IP; reverse: cells co-expressing Myc-RNF128 and Flag-IL-3Rα; immunoprecipitation with anti-Myc antibody; immunoblot
T1 sequence: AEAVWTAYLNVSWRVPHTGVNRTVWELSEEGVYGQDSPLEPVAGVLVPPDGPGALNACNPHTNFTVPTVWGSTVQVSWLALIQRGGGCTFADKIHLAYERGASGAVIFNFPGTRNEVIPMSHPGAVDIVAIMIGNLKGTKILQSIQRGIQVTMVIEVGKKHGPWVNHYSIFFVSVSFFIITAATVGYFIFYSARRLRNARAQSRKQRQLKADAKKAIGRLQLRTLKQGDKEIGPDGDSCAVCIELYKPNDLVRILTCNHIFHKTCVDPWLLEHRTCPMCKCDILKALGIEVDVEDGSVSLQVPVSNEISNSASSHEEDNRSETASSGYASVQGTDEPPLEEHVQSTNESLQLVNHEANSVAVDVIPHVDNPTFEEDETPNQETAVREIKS

Flag-IL-3Rα = Flag-IL-3Rα (UniProt P26951); assay: co-IP; 293T cells co-transfected with HA-RNF128 (or HA-tagged truncated forms) and Flag-tagged receptor; RIPA lysate; immunoprecipitation with anti-Flag antibody on protein A agarose, 4 °C; immunoblot
Flag-tagged IL-3Rβ = target: T2, Flag-tagged IL-3Rβ (UniProt P32927); assay: as above
T2 sequence: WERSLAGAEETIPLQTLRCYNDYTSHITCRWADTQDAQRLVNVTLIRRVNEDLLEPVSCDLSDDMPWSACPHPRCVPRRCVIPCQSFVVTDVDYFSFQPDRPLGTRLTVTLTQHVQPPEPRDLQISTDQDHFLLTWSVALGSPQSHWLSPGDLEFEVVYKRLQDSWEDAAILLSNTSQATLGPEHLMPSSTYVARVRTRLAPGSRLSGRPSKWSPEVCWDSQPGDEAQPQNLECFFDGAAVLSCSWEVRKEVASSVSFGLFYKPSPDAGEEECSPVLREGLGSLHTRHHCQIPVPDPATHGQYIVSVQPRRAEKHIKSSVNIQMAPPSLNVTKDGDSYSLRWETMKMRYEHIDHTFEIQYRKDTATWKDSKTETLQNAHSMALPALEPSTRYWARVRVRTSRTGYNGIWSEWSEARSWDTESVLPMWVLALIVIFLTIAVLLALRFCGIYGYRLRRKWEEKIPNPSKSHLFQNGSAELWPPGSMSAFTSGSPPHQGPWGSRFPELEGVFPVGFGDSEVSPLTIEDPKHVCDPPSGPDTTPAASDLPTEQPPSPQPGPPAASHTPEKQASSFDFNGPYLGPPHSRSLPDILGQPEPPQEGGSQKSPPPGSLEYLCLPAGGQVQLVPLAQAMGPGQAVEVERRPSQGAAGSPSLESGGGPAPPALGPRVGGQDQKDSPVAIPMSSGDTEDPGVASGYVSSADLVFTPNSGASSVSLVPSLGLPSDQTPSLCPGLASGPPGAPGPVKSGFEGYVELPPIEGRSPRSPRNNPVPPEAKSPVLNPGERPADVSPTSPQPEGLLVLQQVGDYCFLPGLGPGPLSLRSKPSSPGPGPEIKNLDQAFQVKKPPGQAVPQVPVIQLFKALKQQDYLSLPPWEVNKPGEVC

## Flag-IL-3Rα (from UniProt P26951 19-378) (receptor)
Myc-RNF128
  binding: binds

B1: HA-RNF128 (enzyme, UniProt Q8TEB7 39-428)
chain: T1 sequence
Flag-IL-3Rα
  binding: binds
Flag-tagged IL-3Rβ
  binding: no binding
